PubChem BioAssay AID504774 | Drosophila RNAi Screening Center | 2011

Screen: 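Genes required for cells to withstand methyl methanesulphonate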 (primary screen)
Cells: Drosophila Kc167 cells
Reagents: long dsRNA against Drosophila genes, about 0.25 µg dsRNA per well
Duration: about 6 days: 3 days knock-down, then 3 days with or without MMS
Challenge: methyl methanesulphonate 0.004% (w/v) for 3 days after knock-down
Read-out: 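ATP-dependent luminescence as a measure of live cells in MMS-exposed wells, quantile normalised within each plate, with replicate values also given as a mean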
Reading the numbers: mean viability with MMS and viability with MMS: higher = more surviving cells after MMS
The screen tested about 23,000 reagents; below is an unselected part of those with a known target gene and a result. 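Values are quantile-normalised luminescence on an arbitrary scale; higher means more cells surviving MMS.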 Names joined by + are all predicted targets of the reagent. Further read-outs or replicates are left out here. No sequences are given here.

target gene | dsRNA | mean viability with MMS | viability with MMS, replicate 1
Acat1 (Acetyl-CoA acetyltransferase 1) | DRSC17766 | 3.53e6 | 4.34e6
hale (hale-bopp) | DRSC10882 | 3.49e6 | 3.96e6
CG12746 | DRSC12218 | 3.83e6 | 4.26e6
CalpC (Calpain C) | DRSC19873 | 3.40e6 | 3.88e6
vig2 | DRSC14402 | 3.41e6 | 3.97e6
CG10445 | DRSC14247 | 3.48e6 | 3.98e6
CG3040 | DRSC22486 | 3.62e6 | 4.12e6
CG10559 | DRSC14255 | 3.32e6 | 3.72e6
CG31097 | DRSC14666 | 3.51e6 | 3.91e6
Cpr67B (Cuticular protein 67B) | DRSC10373 | 3.54e6 | 4.00e6
CG6012 | DRSC02921 | 3.52e6 | 4.10e6
Jhbp12 (Juvenile hormone binding protein 12) | DRSC14621 | 3.49e6 | 3.96e6
CG12835 (retired record) | DRSC06181 | 3.45e6 | 3.98e6
cathD (cathepsin D) | DRSC07588 | 3.50e6 | 4.09e6
CG32437 | DRSC11760 | 3.78e6 | 4.21e6
CG32437 | DRSC22020 | 3.85e6 | 4.30e6
CG11811 | DRSC09862 | 3.54e6 | 4.09e6
Or23a (Odorant receptor 23a) | DRSC00767 | 3.42e6 | 3.81e6
narya | DRSC19439 | 3.64e6 | 4.25e6
EMC3 (ER membrane protein complex subunit 3) | DRSC02989 | 3.38e6 | 3.71e6
CG7675 | DRSC16280 | 3.69e6 | 4.19e6
CG13908 (retired record) | DRSC08378 | 3.46e6 | 3.90e6
CG4594 | DRSC02762 | 3.69e6 | 4.17e6
SmydA-6 (SET and MYND domain containing, arthropod-specific, member 6) | DRSC07341 | 3.60e6 | 4.02e6
CG11825 | DRSC06090 | 3.57e6 | 4.02e6
CG14258 | DRSC14753 | 3.71e6 | 4.25e6
MED25 (Mediator complex subunit 25) | DRSC14483 | 2.77e6 | 3.55e6
MED25 (Mediator complex subunit 25) | DRSC22981 | 3.58e6 | 4.08e6
CG32452 | DRSC11581 | 3.49e6 | 3.98e6
CG32452 | DRSC22250 | 3.55e6 | 3.98e6
Mkp + CG34140 | DRSC08585 | 3.47e6 | 3.91e6
CG4950 | DRSC10463 | 3.40e6 | 3.83e6
CR12798 (pseudo) | DRSC21078 | 3.72e6 | 4.15e6
CG31262 | DRSC13216 | 3.29e6 | 3.84e6
CG12688 (retired record) | DRSC17877 | 3.49e6 | 4.26e6
CG12688 (retired record) | DRSC17878 | 3.56e6 | 4.20e6
Brd (Bearded) | DRSC09685 | 3.60e6 | 4.07e6

Part of the list above, limited to “mean viability with MMS”.
narya [DRSC19439]	3.64e6
EMC3 (ER membrane protein complex subunit 3) [DRSC02989]	3.38e6
CG7675 [DRSC16280]	3.69e6
CG13908 (retired record) [DRSC08378]	3.46e6
CG4594 [DRSC02762]	3.69e6
SmydA-6 (SET and MYND domain containing, arthropod-specific, member 6) [DRSC07341]	3.60e6
CG11825 [DRSC06090]	3.57e6

The list goes on:
target gene | dsRNA | mean viability with MMS | viability with MMS, replicate 1
Tollo | DRSC11305 | 3.50e6 | 3.98e6
CG9981 | DRSC20225 | 3.47e6 | 3.89e6
Hsp83 (Heat shock protein 83) | DRSC08664 | 2.98e6 | 3.57e6
CG12236 | DRSC17830 | 2.62e6 | 2.74e6
CG12236 | DRSC17831 | 3.50e6 | 3.92e6
CG10462 | DRSC02058 | 3.44e6 | 3.89e6
CG14341 | DRSC00371 | 3.57e6 | 4.06e6
NHP2 | DRSC11229 | 3.46e6 | 3.98e6
PolrMT (RNA polymerase mitochondrial) | DRSC00660 | 3.62e6 | 4.18e6
Kal1 (Kallmann syndrome 1) | DRSC15983 | 3.46e6 | 3.91e6
CG33257 | DRSC09917 | 3.60e6 | 4.06e6
CG15482 | DRSC02492 | 3.63e6 | 4.11e6
sphinx2 | DRSC22188 | 3.60e6 | 4.06e6
da | DRSC03517 | 3.41e6 | 4.12e6
Sur-8 | DRSC15794 | 3.57e6 | 4.15e6
PIG-Wb (Phosphatidylinositol glycan anchor biosynthesis class W b) | DRSC08526 | 3.54e6 | 4.05e6
CG7742 | DRSC03066 | 3.71e6 | 4.17e6
Nepl4 (Neprilysin-like 4) | DRSC03239 | 3.58e6 | 4.16e6
COX7AL (Cytochrome c oxidase subunit 7A-like) | DRSC15313 | 3.38e6 | 3.85e6
Obp8a (Odorant-binding protein 8a) | DRSC17868 | 3.52e6 | 3.99e6
Ir52b (Ionotropic receptor 52b) | DRSC06263 | 3.46e6 | 4.04e6
CG33282 | DRSC00422 | 3.60e6 | 4.01e6
CG15824 | DRSC00473 | 3.60e6 | 4.05e6
stum (stumble) | DRSC04268 | 3.61e6 | 4.15e6
stum (stumble) | DRSC04270 | 3.64e6 | 4.13e6
Ugt37C1 (UDP-glycosyltransferase family 37 member C1) | DRSC07416 | 3.55e6 | 4.01e6
l(2)03659 (lethal (2) 03659) | DRSC07269 | 3.68e6 | 4.10e6
l(2)03659 (lethal (2) 03659) | DRSC07638 | 3.65e6 | 4.05e6
SerT (Serotonin transporter) | DRSC04655 | 3.64e6 | 4.20e6
CG5262 | DRSC11773 | 3.53e6 | 4.08e6
Hacd1 (3-hydroxyacyl-CoA dehydratase 1) | DRSC02988 | 3.67e6 | 4.34e6
